Test results published in PMC7909837, “Function and Regulation of Chloroplast Peroxiredoxin IIE” (Antioxidants, 2021).
No constants are given. Whether binding was seen depends on the method and setting. Some entries that bind do so weakly or less than the wild type. Sequences can lack the tags named with a protein.

T1: 14-3-3 υ protein, recombinant (A. thaliana, UniProt P42645 1-268)
T1 construct: 14-3-3 υ, A. thaliana, AT5G16050; construct and tags not described
T1 sequence (looked up): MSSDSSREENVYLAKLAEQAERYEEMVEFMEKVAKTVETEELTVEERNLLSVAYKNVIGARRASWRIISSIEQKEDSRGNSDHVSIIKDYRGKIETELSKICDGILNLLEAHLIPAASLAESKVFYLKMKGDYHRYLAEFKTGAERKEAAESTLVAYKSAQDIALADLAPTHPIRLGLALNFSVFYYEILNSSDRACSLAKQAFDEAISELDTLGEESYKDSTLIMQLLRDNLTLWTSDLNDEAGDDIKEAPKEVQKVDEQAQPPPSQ

B1: Peroxiredoxin IIE (PRX-IIE), wild type, His6-tagged recombinant (enzyme, A. thaliana, UniProt Q949U7 71-234, looked up)
chain: ASISVGDKLPDSTLSYLDPSTGDVKTVTVSSLTAGKKTILFAVPGAFTPTCSQKHVPGFVSKAGELRSKGIDVIACISVNDAFVMEAWRKDLGINDEVMLLSDGNGEFTGKLGVELDLRDKPVGLGVRSRRYAILADDGVVKVLNLEEGGAFTNSSAEDMLKAL
notes: Peroxiredoxin IIE, A. thaliana, AT3G52960, cloned into pET28a (NdeI/BamHI); also called PRX-IIE WT; WT PRX-IIE; source: E. coli BL21 (DE3)pLysS, purified (Ni-NTA, dialysis)
B2: PRX-IIE T108E phospho-mimicry variant (enzyme, UniProt Q949U7 71-234)
chain: ASISVGDKLPDSTLSYLDPSTGDVKTVTVSSLTAGKKEILFAVPGAFTPTCSQKHVPGFVSKAGELRSKGIDVIACISVNDAFVMEAWRKDLGINDEVMLLSDGNGEFTGKLGVELDLRDKPVGLGVRSRRYAILADDGVVKVLNLEEGGAFTNSSAEDMLKAL
B3: PRX-IIE T223E phospho-mimicry variant (enzyme, UniProt Q949U7 71-234)
chain: ASISVGDKLPDSTLSYLDPSTGDVKTVTVSSLTAGKKTILFAVPGAFTPTCSQKHVPGFVSKAGELRSKGIDVIACISVNDAFVMEAWRKDLGINDEVMLLSDGNGEFTGKLGVELDLRDKPVGLGVRSRRYAILADDGVVKVLNLEEGGAFENSSAEDMLKAL
B4: PRX-IIE S82D phospho-mimicry variant (enzyme, UniProt Q949U7 71-234)
chain: ASISVGDKLPDDTLSYLDPSTGDVKTVTVSSLTAGKKTILFAVPGAFTPTCSQKHVPGFVSKAGELRSKGIDVIACISVNDAFVMEAWRKDLGINDEVMLLSDGNGEFTGKLGVELDLRDKPVGLGVRSRRYAILADDGVVKVLNLEEGGAFTNSSAEDMLKAL

The binders below were run against T1, 14-3-3 υ protein, recombinant (assay: far-Western, overlay or dot blot; dilution series of recombinant 14-3-3 υ spotted on nitrocellulose; incubated with PRX-IIE or its phospho-mimicry variants in TBS with either 1 mM DTT or 100 µM H2O2 overnight at 4 °C; detected with anti-PRX-IIE antibody; spots quantified with ImageJ; both purified).

binding, binds:
B1
B2
B3
B4
